Experimental data: PubChem BioAssay AID1508588 (Peter MacCallum Cancer Centre, 2020)

- Assay: 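Genome-wide search for knock-downs that heighten vemurafenib action in melanoma cells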 (primary screen)
- System: human WM266.4 melanoma cells (BRAF V600 mutant)
- Knock-down reagent: siRNA pool against human genes, 40 nM
- Duration: 96 h from transfection to read-out
- Challenge: vemurafenib 300 nM (about IC25), added 48 h after transfection, for 48 h; comparison arm got DMSO vehicle only
- Measurement: 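Cell gain (DAPI nuclei at end minus before drug, mean of two replicates) and medium lactate by absorbance per cell, both as ratio to non-targeting siRNA, also grouped into fold-change classes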
- Direction: cell gain with vemurafenib: higher = more cell gain than with non-targeting siRNA; lactate per cell with vemurafenib: higher = more lactate made per cell
- Hit rule: 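a knock-down counts as enhancing when its fold-change classes with vehicle and with vemurafenib, taken together, show a stronger drug effect on cell gain or lactate per cell; exact class pairs not stated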
- Calls: active = enhances vemurafenib effect; inactive = no enhancement seen
In all, the deposit lists about 18,000 reagents; this is a part drawn at random. 790 of them (4.4%) count as active. 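Calls rest on a combination of fold-change classes in drug and vehicle arms, not all shown here.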 No sequences are given here.

ZNF546 (zinc finger protein 546) [SID134321720] scored cell gain with vemurafenib 0.5; lactate per cell with vemurafenib 0.64; inactive.
With knock-down of GPHA2 (glycoprotein hormone subunit alpha 2) [SID134319341], the record shows cell gain with vemurafenib 0.74; lactate per cell with vemurafenib 0.54; inactive.
Silencing of ARHGEF2 (Rho/Rac guanine nucleotide exchange factor 2) [SID134314580] came out at: cell gain with vemurafenib 0.28; lactate per cell with vemurafenib 0.4; inactive.
Depletion of TSPAN11 (tetraspanin 11) [SID135625351] gave: cell gain with vemurafenib 0.73; lactate per cell with vemurafenib 0.71; inactive.
For SLC26A5 [SID134329425] the deposit lists cell gain with vemurafenib 0.11; lactate per cell with vemurafenib 1.38; inactive.
Silencing of CFAP43 (cilia and flagella associated protein 43) [SID135623179] came out at: cell gain with vemurafenib 0.78; lactate per cell with vemurafenib 0.5; inactive.
GRIN2B (glutamate ionotropic receptor NMDA type subunit 2B) [SID134311615] scored cell gain with vemurafenib 0.37; lactate per cell with vemurafenib 0.27; inactive.
For ALG14 (ALG14 UDP-N-acetylglucosaminyltransferase subunit) [SID134320972], the entry reads cell gain with vemurafenib 0.57; lactate per cell with vemurafenib 0.39; inactive.
Knock-down of PEG10 (paternally expressed 10) [SID135625165] gave: cell gain with vemurafenib 0.75; lactate per cell with vemurafenib 1.42; inactive.
With knock-down of ZNF839 (zinc finger protein 839) [SID152152149], the screen gave cell gain with vemurafenib 0.7; lactate per cell with vemurafenib 0.52; inactive.
For CDK12 (cyclin dependent kinase 12) [SID152151382], the values are cell gain with vemurafenib 0.38; lactate per cell with vemurafenib 1.14; inactive.
KCNMB4 [SID135621528] gave cell gain with vemurafenib 0.67; lactate per cell with vemurafenib 0.73; inactive.
With knock-down of PHF1 (PHD finger protein 1) [SID134315698], the record shows cell gain with vemurafenib 0.36; lactate per cell with vemurafenib 0.94; inactive.
After knock-down of MYH4 (myosin heavy chain 4) [SID135624158], the record shows cell gain with vemurafenib 0.15; lactate per cell with vemurafenib 2.38; inactive.
With knock-down of SCRN1 (secernin 1) [SID152152569], the screen gave cell gain with vemurafenib 0.46; lactate per cell with vemurafenib 0.76; inactive.
Against ALKBH3 (alkB homolog 3, alpha-ketoglutarate dependent dioxygenase) [SID152152168], the entry reads cell gain with vemurafenib 0.66; lactate per cell with vemurafenib 0.28; inactive.
CORT (cortistatin) [SID135624672] showed cell gain with vemurafenib 0.17; lactate per cell with vemurafenib -0.09; active.
Silencing of CCDC42 (coiled-coil domain containing 42) [SID134319839] resulted in: cell gain with vemurafenib 0.58; lactate per cell with vemurafenib 0.94; inactive.
With knock-down of TENT5B (terminal nucleotidyltransferase 5B) [SID134319220], the screen gave cell gain with vemurafenib 1.08; lactate per cell with vemurafenib 0.74; inactive.
With knock-down of XRN1 (5'-3' exoribonuclease 1) [SID152152255], the record shows cell gain with vemurafenib 0.78; lactate per cell with vemurafenib 0.94; inactive.

Entries listed above marked active (1):
CORT (cortistatin) [SID135624672]: cell gain with vemurafenib = 0.17; lactate per cell with vemurafenib = -0.09; Call = active

The list goes on:
MRGPRX4 (MAS related GPR family member X4) [SID152152729] showed cell gain with vemurafenib 0.37; lactate per cell with vemurafenib 1.41; inactive.
For PEX3 (peroxisomal biogenesis factor 3) [SID134323326] the deposit lists cell gain with vemurafenib 0.43; lactate per cell with vemurafenib 1.78; inactive.
DNASE1 (deoxyribonuclease 1) [SID135623120] showed cell gain with vemurafenib 0.89; lactate per cell with vemurafenib 0.73; inactive.
Silencing of HSPA4 (heat shock protein family A (Hsp70) member 4) [SID135622354] resulted in: cell gain with vemurafenib 0.52; lactate per cell with vemurafenib 0.57; inactive.
MPZL1 (myelin protein zero like 1) [SID56479275] gave cell gain with vemurafenib 0.81; lactate per cell with vemurafenib 0.91; inactive.
Knock-down of SS18L2 (SS18 like 2) [SID152152123] came out at: cell gain with vemurafenib 0.22; lactate per cell with vemurafenib 1.64; inactive.
For OLFM4 (olfactomedin 4) [SID152150635], the entry reads cell gain with vemurafenib 0.61; lactate per cell with vemurafenib 0.62; inactive.
With knock-down of MEI1 (meiotic double-stranded break formation protein 1) [SID135624463], the screen gave cell gain with vemurafenib 0.62; lactate per cell with vemurafenib 0.94; inactive.
EFEMP2 (EGF-like fibulin extracellular matrix protein 2) [SID152154090] showed cell gain with vemurafenib 0.33; lactate per cell with vemurafenib 1.07; inactive.
After knock-down of FAM110B (family with sequence similarity 110 member B) [SID152150060], the record shows cell gain with vemurafenib 0.64; lactate per cell with vemurafenib 0.31; inactive.
Knock-down of CCL22 (C-C motif chemokine ligand 22) [SID135621451] gave: cell gain with vemurafenib 0.43; lactate per cell with vemurafenib 0.75; inactive.
Silencing of ABCG4 (ATP binding cassette subfamily G member 4) [SID134313760] resulted in: cell gain with vemurafenib 0.18; lactate per cell with vemurafenib 1.47; inactive.
Knock-down of PKN2 (protein kinase N2) [SID152156352] gave: cell gain with vemurafenib 0.38; lactate per cell with vemurafenib 0.87; inactive.
With knock-down of TRIL (TLR4 interactor with leucine rich repeats) [SID152149919] the results were cell gain with vemurafenib 1.06; lactate per cell with vemurafenib 0.76; inactive.
With knock-down of CACHD1 (cache domain containing 1) [SID152154451], the record shows cell gain with vemurafenib 0.92; lactate per cell with vemurafenib 0.58; inactive.
For HMGCR (3-hydroxy-3-methylglutaryl-CoA reductase) [SID135621846], the values are cell gain with vemurafenib 0.8; lactate per cell with vemurafenib 1.12; inactive.
Silencing of GLTPD2 (glycolipid transfer protein domain containing 2) [SID152152654] came out at: cell gain with vemurafenib 0.58; lactate per cell with vemurafenib 1.06; inactive.
With knock-down of GPR45 (G protein-coupled receptor 45) [SID134311018], the record shows cell gain with vemurafenib 0.82; lactate per cell with vemurafenib 0.94; inactive.
Against ATP5PB (ATP synthase peripheral stalk-membrane subunit b) [SID152153332], the entry reads cell gain with vemurafenib 0.13; lactate per cell with vemurafenib 1; inactive.
With knock-down of TEKT5 (tektin 5) [SID134319853], the record shows cell gain with vemurafenib 0.37; lactate per cell with vemurafenib 1.34; inactive.
